# Source: US20200268728A1, “DRUG TARGETING CANCER STEM CELL” (Sumitomo Dainippon Pharma Co., Ltd., priority 2016, published 2020)
# Some of these results come from one statement about several compounds together. At least one structure is not confirmed: it was looked up by name or label, or the drawing left a doubt.
# Columns and labels:
# HCT116 cells = assay: Combination with Example 24, inhibitory effect on cell proliferation (Test Example 5); type: cell-based, human; details: HCT116, medium with 10% FBS, test compound combined with Example 24 (10-1000 nmol/L), 4 days
# H460 cells = assay: as above; type: cell-based, human; details: H460, medium with 10% FBS, test compound combined with Example 24 (10-1000 nmol/L), 4 days
Compound,"sCI, minimum (Ld)/(Lc) of cell survival rate (HCT116 cells)","sCI, minimum (Ld)/(Lc) of cell survival rate (H460 cells)"
CN(N=O)C(=O)N[C@H]1C(O)O[C@H](CO)[C@@H](O)[C@@H]1O (mixture of isomers) [Streptozotocin],1<,0.8-0.9
CN(C)CC[C@H](CSc1ccccc1)Nc1ccc(S(=O)(=O)NC(=O)c2ccc(N3CCN(Cc4ccccc4-c4ccc(Cl)cc4)CC3)cc2)cc1[N+](=O)[O-] [ABT-737],1<,1<
COc1ccc(S(=O)(=O)Nc2cccnc2Nc2ccc(O)cc2)cc1 [ABT-751],0.6-0.7,0.8-0.9
CN(C)Cc1ccc(-c2nc3cccc4c3n2CCNC4=O)cc1 [AG14361],1<,0.9-1^
O=C(NC1CCNCC1)c1n[nH]cc1NC(=O)c1c(Cl)cccc1Cl [AT7519],1<,0.8-0.9
CN[C@@H](C)C(=O)N[C@H]1CN(C(=O)CC(C)C)CC[C@H]2CC[C@@H](C(=O)NC(c3ccccc3)c3ccccc3)N2C1=O [AT-406],0.9-1^,0.9-1^
Cc1ccc(NC(=O)c2cccc(C(C)(C)C#N)c2)cc1Nc1ccc2ncn(C)c(=O)c2c1 [AZ628],0.9-1^,1<
Cn1cnc2c(F)c(Nc3ccc(Br)cc3Cl)c(C(=O)NOCCO)cc21 [AZD6244],1<,1<
COc1ccc(-c2ccc3c(N4CCOC[C@@H]4C)nc(N4CCOC[C@@H]4C)nc3n2)cc1CO [AZD8055],1<,0.7-0.8
CCN(CC)CCNC(=O)c1c(C)[nH]c(/C=C2\C(=O)Nc3ccc(-c4csc(-c5ccccc5)n4)cc32)c1C [Amcasertib],0.9-1^,0.9-1^
Cc1ccc(S(=O)(=O)/C=C/C#N)cc1 [BAY 11-7082],0.9-1^,0.8-0.9
C/C(=C\C(=O)Nc1ccccc1C(=O)O)c1ccc2ccccc2c1 [BIBR 1532],1<,0.8-0.9
CCOc1ccn(-c2ccc(F)cc2)c(=O)c1C(=O)Nc1ccc(Oc2ccnc(N)c2Cl)c(F)c1 [BMS 777607],1<,0.8-0.9
Nc1nccc(Oc2ccc(NC(=O)c3c[nH]cc(-c4ccc(F)cc4)c3=O)cc2F)c1Cl [BMS 794833],0.9-1^,0.8-0.9
Cc1c(NC(=O)OC[C@@H]2COCCN2)cn2ncnc(Nc3ccc4c(cnn4Cc4cccc(F)c4)c3)c12 [BMS-599626],0.9-1^,0.8-0.9
CN1CCN(c2cccc(Nc3nc4c(-c5ccc(S(C)(=O)=O)cc5)cccn4n3)c2)CC1 [CEP33779],0.9-1^,0.9-1^
COc1cc2ncnc(-n3nc(-c4ccccn4)nc3N)c2cc1OC [CP-466722],1<,0.8-0.9
Cc1ccc([C@@H]2O[C@H](CO)[C@@H](O)[C@H](O)[C@H]2O)cc1Cc1ccc(-c2ccc(F)cc2)s1 [Canagliflozin],1<,0.8-0.9
COC1=C(OC)C(=O)C(C/C=C(\C)CC/C=C(\C)CC/C=C(\C)CC/C=C(\C)CC/C=C(\C)CC/C=C(\C)CC/C=C(\C)CC/C=C(\C)CC/C=C(\C)CCC=C(C)C)=C(C)C1=O [Coenzyme Q10],0.9-1^,0.7-0.8
N#CCNC(=O)c1ccc(-c2ccnc(Nc3ccc(N4CCOCC4)cc3)n2)cc1 [Cyt387],0.9-1^,1<
C[C@H](NC(=O)Cc1cc(F)cc(F)c1)C(=O)N[C@H](C(=O)OC(C)(C)C)c1ccccc1 [DAPT],1<,0.7-0.8
C#Cc1cccc(Nc2ncnc3cc(OCCOC)c(OCCO)cc23)c1.Cl [Desmethyl Erlotinib],1<,1<
N#Cc1c(O)c2c(-c3ccc(-c4ccccc4O)cc3)csc2[nH]c1=O [Example A-769662],1<,0.7-0.8
C[C@@H](Oc1cc(-n2cnc3ccc(CN4CCN(C)CC4)cc32)sc1C(N)=O)c1ccccc1C(F)(F)F [GSK461364],1<,1<
CCn1c(-c2nonc2N)nc2c(C#CC(C)(C)O)ncc(OC[C@H]3CCCNC3)c21 [GSK690693],1<,1<
CCc1cc(Nc2nccc(-c3c(-c4ccc(OC)c(C(=O)Nc5c(F)cccc5F)c4)nc4ccccn34)n2)c(OC)cc1N1CCC(N2CCN(S(C)(=O)=O)CC2)CC1 [GSK1904529A],0.9-1^,0.7-0.8

Compound,"sCI, minimum (Ld)/(Lc) of cell survival rate (HCT116 cells)","sCI, minimum (Ld)/(Lc) of cell survival rate (H460 cells)"
COc1ncc(-c2ccc3nccc(-c4ccnnc4)c3c2)cc1NS(=O)(=O)c1ccc(F)cc1F [GSK2126458],0.9-1^,0.7-0.8
CC(C)c1onc(-c2c(Cl)cccc2Cl)c1COc1ccc(/C=C/c2cccc(C(=O)O)c2)c(Cl)c1 [GW4064],0.9-1^,0.8-0.9
c1ccc2c(CCNc3ccc(Nc4ccncc4)cc3)c[nH]c2c1 [JNJ 26854165],0.9-1^,0.8-0.9
Cn1cc(CNCC2CCN(c3ncc(C(=O)NO)cn3)CC2)c2ccccc21 [JNJ-26481585],0.9-1^,1<
Cn1cc(-c2ccc3nnc(C(F)(F)c4ccc5ncccc5c4)n3n2)cn1 [JNJ-38877605],1<,0.7-0.8
O=c1cc(-c2cccc3c2Sc2ccccc2S3)oc(N2CCOCC2)c1 [KU-55933],1<,0.8-0.9
C[C@@H]1CN(CC(=O)Nc2ccc3c(c2)Cc2cccc(-c4cc(=O)cc(N5CCOCC5)o4)c2S3)C[C@H](C)O1 [KU-60019],0.9-1^,0.9-1^
COc1ccc(-c2ccc3c(N4CCOCC4)nc(N4C[C@@H](C)O[C@@H](C)C4)nc3n2)cc1CO [Ku-0063794],1<,1<
c1ccc2c(-c3cnn4cc(-c5ccc(N6CCNCC6)cc5)cnc34)ccnc2c1 [LDN193189],1<,1<
O=c1cc(N2CCOCC2)oc2c(-c3ccccc3)cccc12 [LY294002],1<,0.8-0.9
c1ccc(-c2nn3c(c2-c2ccnc4cc(OCCN5CCOCC5)ccc24)CCC3)nc1 [LY2109761],0.9-1^,0.6-0.7
Cc1cccc(-c2nn3c(c2-c2ccnc4ccc(C(N)=O)cc24)CCC3)n1 [LY2157299],1<,0.6-0.7
CC(C)(C)Cn1c(N)nc2ccc(-c3[nH]c(C(C)(C)C)nc3-c3ccc(F)cc3)nc21 [LY2228820],1<,1<
Cc1cnc(NC(=O)Nc2cc(Br)c(C)cc2OC[C@@H]2CNCCO2)cn1 [LY2603618],1<,1<
O=C(O)CC[C@H]1CC[C@@](c2cc(F)ccc2F)(S(=O)(=O)c2ccc(Cl)cc2)CC1 [MK-0752],0.9-1^,0.7-0.8
C=CCn1c(=O)c2cnc(Nc3ccc(N4CCN(C)CC4)cc3)nc2n1-c1cccc(C(C)(C)O)n1 [MK-1775],1<,0.7-0.8
NC1(c2ccc(-c3nc4ccn5c(=O)[nH]nc5c4cc3-c3ccccc3)cc2)CCC1 [MK-2206],1<,1<
O=c1cc(N2CCOCC2)oc2c(-c3cccc4c3sc3ccccc34)cccc12 [NU7441],0.9-1^,0.8-0.9
COc1ccc(C2=N[C@@H](c3ccc(Cl)cc3)[C@@H](c3ccc(Cl)cc3)N2C(=O)N2CCNC(=O)C2)c(OC(C)C)c1 [Nutlin-3],1<,1<
C#Cc1cccc(Nc2ncnc3cc(OCCOC)c(OCCO)cc23)c1 [OSI-420],0.9-1^,1<
C=CCc1cccc(/C=N/NC(=O)CN2CCN(Cc3ccccc3)CC2)c1O [PAC-1],0.9-1^,0.8-0.9
CCN(CC)CCCCNc1ncc2cc(-c3cc(OC)cc(OC)c3)c(NC(=O)NC(C)(C)C)nc2n1 [PD173074],0.9-1^,0.7-0.8
CS(=O)(=O)c1cccc(CNc2nc(Nc3ccc4c(c3)CCC(=O)N4)ncc2C(F)(F)F)c1 [PF 573228],1<,0.8-0.9
O=C(Nc1cccnc1)N1CCC(Cc2cccc(Oc3ccc(C(F)(F)F)cn3)c2)CC1 [PF-3845],1<,0.9-1^
CN(c1ncccc1CNc1nc(Nc2ccc3c(c2)CC(=O)N3)ncc1C(F)(F)F)S(C)(=O)=O [PF-562271],1<,1<
